Experimental data as given in article PMC10526669.
Results are given in words; binding and its absence hold for the method and conditions named. Binding seen in cells or lysates may run through a third protein. Some results given as binding are weak or reduced against the parent protein; the word gives no strength.

Sequences of proteins named here, by UniProt entry; tags and fusion partners are left off.
UniProt P40763: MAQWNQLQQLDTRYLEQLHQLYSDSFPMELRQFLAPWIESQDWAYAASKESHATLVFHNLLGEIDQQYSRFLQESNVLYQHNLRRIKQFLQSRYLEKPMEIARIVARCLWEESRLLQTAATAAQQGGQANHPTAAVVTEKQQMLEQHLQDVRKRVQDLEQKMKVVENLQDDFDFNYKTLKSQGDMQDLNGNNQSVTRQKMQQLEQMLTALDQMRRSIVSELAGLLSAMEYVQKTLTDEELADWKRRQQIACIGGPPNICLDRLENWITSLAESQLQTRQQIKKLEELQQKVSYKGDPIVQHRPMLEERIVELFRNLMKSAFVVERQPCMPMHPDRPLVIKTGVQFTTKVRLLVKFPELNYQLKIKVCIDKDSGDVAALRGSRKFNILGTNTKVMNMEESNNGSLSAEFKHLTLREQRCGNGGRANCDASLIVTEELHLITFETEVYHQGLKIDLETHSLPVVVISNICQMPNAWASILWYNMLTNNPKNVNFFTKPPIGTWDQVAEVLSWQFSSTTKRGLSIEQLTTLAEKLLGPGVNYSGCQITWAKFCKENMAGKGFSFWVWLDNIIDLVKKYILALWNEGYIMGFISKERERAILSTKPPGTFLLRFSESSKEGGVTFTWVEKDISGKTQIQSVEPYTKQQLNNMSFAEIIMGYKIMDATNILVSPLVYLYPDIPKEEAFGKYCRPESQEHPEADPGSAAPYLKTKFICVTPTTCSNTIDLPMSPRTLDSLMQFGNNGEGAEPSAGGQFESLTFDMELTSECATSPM
UniProt P52294: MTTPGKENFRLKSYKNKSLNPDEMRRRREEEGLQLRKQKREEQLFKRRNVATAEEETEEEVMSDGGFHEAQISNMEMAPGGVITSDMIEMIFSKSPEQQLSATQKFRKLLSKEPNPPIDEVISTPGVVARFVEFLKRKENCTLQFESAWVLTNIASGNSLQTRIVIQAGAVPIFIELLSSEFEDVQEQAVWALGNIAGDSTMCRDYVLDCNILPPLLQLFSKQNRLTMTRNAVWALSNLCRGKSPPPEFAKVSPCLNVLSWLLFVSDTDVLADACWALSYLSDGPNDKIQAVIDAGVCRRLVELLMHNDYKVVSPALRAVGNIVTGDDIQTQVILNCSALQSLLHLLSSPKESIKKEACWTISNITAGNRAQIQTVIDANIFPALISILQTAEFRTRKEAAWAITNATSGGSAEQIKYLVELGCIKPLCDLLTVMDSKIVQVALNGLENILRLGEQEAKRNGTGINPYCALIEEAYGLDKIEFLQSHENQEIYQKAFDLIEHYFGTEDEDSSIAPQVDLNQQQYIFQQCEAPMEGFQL
UniProt Q60960: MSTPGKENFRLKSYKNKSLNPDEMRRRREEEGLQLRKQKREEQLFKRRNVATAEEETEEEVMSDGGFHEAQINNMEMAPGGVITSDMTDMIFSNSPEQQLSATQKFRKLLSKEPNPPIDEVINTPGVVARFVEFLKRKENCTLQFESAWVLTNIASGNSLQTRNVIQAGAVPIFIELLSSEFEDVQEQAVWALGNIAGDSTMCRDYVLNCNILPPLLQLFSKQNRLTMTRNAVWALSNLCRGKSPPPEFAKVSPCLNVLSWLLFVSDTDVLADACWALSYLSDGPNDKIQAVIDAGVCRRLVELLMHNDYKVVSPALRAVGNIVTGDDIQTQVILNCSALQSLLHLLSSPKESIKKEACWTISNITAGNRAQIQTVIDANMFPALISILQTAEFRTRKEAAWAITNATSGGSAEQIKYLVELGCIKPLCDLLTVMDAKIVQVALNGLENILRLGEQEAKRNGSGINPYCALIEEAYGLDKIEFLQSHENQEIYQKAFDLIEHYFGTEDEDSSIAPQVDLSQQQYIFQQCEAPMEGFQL
UniProt P42227: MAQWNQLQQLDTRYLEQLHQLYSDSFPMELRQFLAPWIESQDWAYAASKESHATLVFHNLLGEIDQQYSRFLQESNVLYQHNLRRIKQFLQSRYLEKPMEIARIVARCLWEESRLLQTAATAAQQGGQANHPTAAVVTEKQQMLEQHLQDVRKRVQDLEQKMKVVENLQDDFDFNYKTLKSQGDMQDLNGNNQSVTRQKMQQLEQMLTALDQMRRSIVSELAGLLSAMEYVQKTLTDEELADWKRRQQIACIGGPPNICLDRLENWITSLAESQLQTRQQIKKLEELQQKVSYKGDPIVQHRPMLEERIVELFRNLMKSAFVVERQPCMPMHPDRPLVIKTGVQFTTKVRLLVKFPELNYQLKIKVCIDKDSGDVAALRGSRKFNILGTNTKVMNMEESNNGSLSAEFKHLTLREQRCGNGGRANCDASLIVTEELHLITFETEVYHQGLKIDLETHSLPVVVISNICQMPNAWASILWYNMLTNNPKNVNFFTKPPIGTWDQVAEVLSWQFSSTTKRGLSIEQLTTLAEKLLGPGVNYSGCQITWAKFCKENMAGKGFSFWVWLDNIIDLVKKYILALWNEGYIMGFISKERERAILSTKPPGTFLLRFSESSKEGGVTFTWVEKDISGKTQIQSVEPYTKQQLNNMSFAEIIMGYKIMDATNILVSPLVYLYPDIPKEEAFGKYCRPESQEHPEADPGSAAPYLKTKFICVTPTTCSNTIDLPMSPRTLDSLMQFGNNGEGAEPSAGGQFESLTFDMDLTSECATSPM

Columns and labels:
[1] = target: T1, Thioredoxin-1 (Trx-1), endogenous human (human (endogenous in HT-29, SW480 and human CRC tissue)) (UniProt P10599); experiment: co-IP; nuclear and cytosolic extracts of HT-29 cells without or with IL-6; IP with anti-Trx-1 or anti-STAT3; immunoblot
T1 sequence: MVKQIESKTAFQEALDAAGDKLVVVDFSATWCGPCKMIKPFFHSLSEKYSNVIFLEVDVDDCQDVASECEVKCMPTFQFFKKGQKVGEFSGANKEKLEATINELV

[2] = target: T1, Thioredoxin-1 (Trx-1), endogenous human (human (endogenous in HT-29, SW480 and human CRC tissue)); experiment: co-IP; human CRC tissue lysates; IP with anti-Trx-1 or anti-STAT3 antibody; immunoblot with anti-pSTAT3, anti-Kpnα1 or anti-Trx-1
[3] = target: T2, WT-Trx-1 (human wild-type Trx-1, lentivirally expressed) (human) (UniProt P10599); experiment: co-IP; lysates of HT-29 cells stably expressing WT-Trx-1, MT-Trx-1, shTrx-1 or control vector, without or with IL-6; IP with anti-Trx-1 or anti-Kpnα1 antibody; immunoblot
T2 sequence: T1 sequence

[4] = target: T1, Thioredoxin-1 (Trx-1), endogenous human (human (endogenous in HT-29, SW480 and human CRC tissue)); experiment: co-IP; endogenous proteins in total lysates (500 μg) of HT-29 and SW480 cells treated with 20 ng/mL IL-6 or vehicle for 2 h; IP with anti-Trx-1 or anti-STAT3 antibody or control IgG on protein G beads, 1 h at room temperature; immunoblot
[5] = target: T3, Trx-1, endogenous mouse (colon tissue) (mouse (endogenous in colon tissue)) (UniProt P10639); experiment: co-IP; lysates of mouse colon tissue (control, AOM/DSS model, AOM/DSS plus PX-12); IP with anti-Trx-1 antibody or control IgG; immunoblot with anti-pSTAT3, anti-Kpnα1 or anti-Trx-1
T3 sequence: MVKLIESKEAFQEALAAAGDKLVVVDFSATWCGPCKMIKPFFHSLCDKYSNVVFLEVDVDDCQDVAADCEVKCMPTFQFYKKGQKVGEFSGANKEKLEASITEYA

Substance | binding [1] | binding [2] | binding [3] | binding [4] | binding [5]
pSTAT3 (STAT3 phosphorylated at Tyr705), endogenous human (from UniProt P40763 1-770) | binds | binds | binds | binds | 
karyopherin α1 (Kpnα1), endogenous human (from UniProt P52294 1-538) |  | binds | binds | binds | 
karyopherin α1 (Kpnα1), endogenous mouse (colon tissue) (from UniProt Q60960 1-538) |  |  |  |  | binds
pSTAT3, endogenous mouse (colon tissue) (from UniProt P42227 1-770) |  |  |  |  | binds
